The whole screen tested about 210,000 compounds, of which about 5,900 (2.8%) were called active. Roughly 5% stayed inconclusive and do not appear here. Calls come from the whole dose curve; as a rule, active = well fitted activation curve with a large enough effect; inconclusive = small, poorly fitted or top-dose-only effect; inactive = no such curve, though single readings can be large or run the other way. The entries are a selection whose mix differs from that of the whole data set. Entries without a call were filed so in the source.
Potency is the fitted concentration of half-maximal effect.

The test is described as follows: qHTS Assay for Enhancers of SMN2 Splice Variant Expression. For activity change, positive = activation: % of control where 0% means no effect. Note: nearly all actives have a fitted effect of over 55% in size. Conditions: HEK293 SMN2-luciferase splicing reporter, luminescence, 30-36 h; activity change, positive = activation: at 46.1 µM (top of the series) unless noted. An outline of the steps: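 HEK293 cells carry an SMN2 […]–luciferase reporter in which exon 7 inclusion puts luciferase in frame. Cells were plated 10-12 h before compound addition, then incubated 30-36 h at 37C. ONE-Glo luminescence was read; sodium butyrate at 4.5 mM final served as control.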
On the technique in general: Quantitative high-throughput screening tests each substance at several concentrations.
Turning to `COc1ccc(-c2ccc(SCC(=O)Nc3cc(C)on3)nn2)cc1OC`, the activity change, positive = activation is 36.3%.

Regarding `COc1cc(SC)ccc1C(=O)Nc1ccc2c(c1)OCCO2`, the Potency is active: 5.62 µM.

With `CCOc1ccc(NC(=S)N2CCC(C(O)(c3ccccc3)c3ccccc3)CC2)cc1`, the activity change, positive = activation is -2.5%.

In the case of `Cc1ccc(NC(=S)c2nc3ccccc3[nH]2)cc1`, the Potency is active: 28.2 µM.

`CCOc1ccccc1NC(=O)c1ccccc1N(C)S(C)(=O)=O`: the activity change, positive = activation was 24.3%.

`Cn1c(C(=O)N2CCN(c3nc4ccccc4s3)CC2)cc2sccc21`: the activity change, positive = activation is -61.8%.

Regarding `CCC(=C(CC)c1ccc(O)cc1)c1ccc(O)cc1`, the “activity change, positive = activation” value is inactive: -24.2% [at 20.6 µM].

As to `COc1ccc(CCNC(=O)C(=O)NCCOc2ccccc2Cl)cc1OC`, the “activity change, positive = activation” value was inactive: -0.877%.

For the molecule `O=C(Nc1ccc(-c2ccc3nncn3n2)cc1)C1CCCCC1`, the activity change, positive = activation turned out to be 37.8%.

Take `O=C(Nc1nc(-c2ccc(S(=O)(=O)N3CCCC3)cc2)cs1)c1cccs1`: the activity change, positive = activation is -84.3%.

As for `CCC1CCCCN1CCCNC(=O)c1cc2c(=O)[nH]c3ccccc3c2n1C` (stereo not drawn), the “activity change, positive = activation” value is inactive: -38.2%.

Consider `C/C=C(\C)c1nnc(NC(=O)c2ccco2)s1`, for which the Potency is active: 12.6 µM.

In the case of `O=C(/C=C/c1cn(-c2ccccc2)nc1-c1cccc(Cl)c1)N1CCN(c2ccccn2)CC1`, the “activity change, positive = activation” value is inactive: -49.8%.

With `COc1ccc(C(=O)Oc2cc(-c3ccc(OC)c(OC)c3)cc(=O)c3c(C)oc(C)c23)cc1`, the activity change, positive = activation was found to be 45.2%.

Regarding `Cc1cc(C)c2cc(C#N)c(SCC(=O)NCc3ccco3)nc2c1`, the activity change, positive = activation is 36.3%.

Turning to `COc1cccc(-c2ccc(-c3noc(-c4cccs4)n3)c(OC)n2)c1`, the activity change, positive = activation worked out at 23.2%.

On to `COCCOC(=O)c1c(C)oc2ccc(NS(=O)(=O)c3ccccc3)cc12`, for which the activity change, positive = activation came to 38.4%.

In the case of `COc1ccc(C(=O)/C=C/c2cn(CC(O)CN3CCOCC3)c3ccccc23)cc1` (stereo not drawn), the “activity change, positive = activation” value was inactive: -51%.

`CCOc1ccccc1C1N=C(c2ccc(OC)cc2)CC(c2ccccc2O)N1` (stereo not drawn): the activity change, positive = activation came out at 105%.

Take `Cc1cc(C)cc(OCCCC(=O)O)c1`: the activity change, positive = activation is 30.4%.

As to `COc1ccc(S(=O)(=O)N2CCC(C(=O)NCCc3ccccc3)CC2)cc1OC`, the activity change, positive = activation amounted to 30.8%.

With `Cc1ccc(C(=O)N/C(=C/c2cccs2)C(=O)NCCc2c[nH]c3ccccc23)cc1`, the activity change, positive = activation worked out at 52.9%.

In the case of `CNc1ccc(Br)cc(C(=O)/C=C/c2cccc(OC)c2OC)c1=O`, the activity change, positive = activation is -95.8%.

`COc1cc(C=Nc2c(C)cc(C)cc2C)ccc1OC(C)=O`: the activity change, positive = activation was found to be 34.3%.

For `Cc1oc(/N=C/c2ccc(O)cc2O)c(C#N)c1C`, the “activity change, positive = activation” value was inactive: -8.29%.

Consider `CCN(CC)C(=O)CSc1nnc(-c2ccc(S(=O)(=O)N3CCCC3)cc2)o1`, for which the activity change, positive = activation is 29.3%.

Turning to `CC(=O)Nc1ccc(Nc2nc(C)nc3c2oc2ccccc23)cc1`, the activity change, positive = activation stood at 17.6%.

As to `O=C(CC1N=C2c3ccccc3N=C(SCC(=O)Nc3cccc(Cl)c3)N2C1=O)NCc1cccs1` (stereo not drawn), the activity change, positive = activation was determined as 41.1%.

For `CCOC(=O)c1ccc(N2Cc3ccccc3C2)cc1O`, the activity change, positive = activation was 35.9%.

Take `CCCCCC(=O)Nc1ccc(-c2cn3cccnc3n2)cc1`: the activity change, positive = activation worked out at 80.5%.

`Cc1cc(C(=O)CSc2nnc(-c3ccc4c(c3)OCO4)o2)c(C)n1-c1ccc(F)cc1`: the “activity change, positive = activation” value was inactive: -64.7%.

As for `COc1cccc(C2=CC(c3ccc(OC)c(OC)c3OC)n3nnnc3N2)c1` (stereo not drawn), the activity change, positive = activation was -50%.

For `CCc1ccc(-c2nc(CSCC(=O)N3CCN(c4ccccn4)CC3)c(C)o2)cc1`, the activity change, positive = activation was -32.5%.

As for `Cc1ccc(S(=O)(=O)N(C)CCCC(=O)Nc2cccc3ccccc23)cc1`, the activity change, positive = activation is -44.5%.

For the molecule `CCOC(=O)CSc1ccc(S(=O)(=O)N(C)C2CCCCC2)cc1[N+](=O)[O-]`, the activity change, positive = activation was found to be 52%.

Take `Cc1ccc(N(CC(=O)NCCc2ccc(Cl)cc2)S(=O)(=O)N(C)C)cc1`: the activity change, positive = activation worked out at 30.7%.

With `CSc1cccc(NC(=O)CN(C)S(=O)(=O)c2ccc(F)cc2)c1`, the activity change, positive = activation amounted to 18.6%.

Regarding `CCc1ccc(OCC(=O)N2c3ccccc3CCc3ccccc32)cc1`, the activity change, positive = activation is -57.9%.

As to `COCCn1cnnc1SCC(=O)Nc1ccccc1C(=O)Nc1ccc2c(c1)OCO2`, the activity change, positive = activation stood at 50.4%.

Consider `N#Cc1ccc(C(=O)Nc2ccc(N3CCN(C(=O)c4ccco4)CC3)cc2)c(F)c1`, for which the activity change, positive = activation is -30.7%.

As for `CCCNS(=O)(=O)c1ccc(CCC(=O)Nc2cc(Cl)ccc2Oc2ccccc2)cc1`, the “activity change, positive = activation” value is inactive: -62.2%.

In the case of `O=C(NCC1CCCO1)c1cccc(Oc2ccc([N+](=O)[O-])cc2Cl)c1` (stereo not drawn), the “activity change, positive = activation” value was inactive: -33.2%.

For the molecule `O=C(CSc1ccc2ccccc2c1)Nc1nc2ccccc2[nH]1`, the activity change, positive = activation is -41.9%.

In the case of `C#CCOc1ccc(C2C(C(=O)OC)=C(C)NC3=C2C(=O)c2ccccc23)cc1OCC` (stereo not drawn), the activity change, positive = activation was found to be 34.1%.

Turning to `Cc1ccc2n(n1)c(=O)c(Cc1ccccc1)c([O-])[n+]2-c1ccccc1`, the “activity change, positive = activation” value was inactive: -25.1%.

Consider `NS(=O)(=O)c1ccc(CCNc2ncnc3sccc23)cc1`, for which the activity change, positive = activation is -64.7%.

For the molecule `O=C(Nc1ccc(NC(=O)c2ccco2)nc1)c1cccnc1`, the Potency was active: 11.2 µM.

Regarding `Nc1c(C(=O)N2CCOCC2)sc2nc3c(cc12)CCC3`, the Potency was active: 11.2 µM.

Turning to `COC(=O)c1ccc(COc2ccccc2/C=N/Nc2cccc(C(=O)O)c2)cc1`, the activity change, positive = activation came to 34%.

Regarding `N#C/C(=C\c1ccc(O)c(O)c1)C(=O)Nc1ccccc1`, the Potency is active: 22.4 µM.

`CC1CC(C)CN(c2nc3c(c(=O)n(C)c(=O)n3C)n2C)C1` (stereo not drawn): the activity change, positive = activation is 49.4%.

With `CCCC[C@H]1C[C@@H]1[C@@H]1N(P(=O)(c2ccccc2)c2ccccc2)[C@](CO)(c2ccccc2)CC12CC2`, the “activity change, positive = activation” value is inactive: -53.1%.

For `O=C(N/N=C\c1ccccn1)C1COc2cc3ccccc3cc2O1` (stereo not drawn), the activity change, positive = activation was -64.9%.
